Results published in patent publication US5663295A (Biomeasure Inc., priority 1994, dated 1997).

Test: Boc solid-phase peptide synthesis; 4-methylbenzhydrylamine-polystyrene resin; diisopropyl carbodiimide, hydroxybenzotriazole hydrate; BOP reagent in solution
Conditions: whole synthesis, scale 0.64 mmole

Tyrosyl-D-alanyl-glycyl-AHPPA amide
isolated mass: 24 mg
